# Experimental data reported in paper PMC8384837.
# Where a chain is given by its changes, count along the chain named. Some of the results follow. For some assays here: At the low end of the ranking the order means little.
# Legend:
# Conditions in all cases: yeast three-hybrid, YBZ-1, SC-Leu-His + 0.5 mM 3-AT, 4 days
# [1] = molecular target: T1, PUM1 PUF domain R3-LNA C935L + R936N + Q939A (UniProt Q14671)
# T1 sequence: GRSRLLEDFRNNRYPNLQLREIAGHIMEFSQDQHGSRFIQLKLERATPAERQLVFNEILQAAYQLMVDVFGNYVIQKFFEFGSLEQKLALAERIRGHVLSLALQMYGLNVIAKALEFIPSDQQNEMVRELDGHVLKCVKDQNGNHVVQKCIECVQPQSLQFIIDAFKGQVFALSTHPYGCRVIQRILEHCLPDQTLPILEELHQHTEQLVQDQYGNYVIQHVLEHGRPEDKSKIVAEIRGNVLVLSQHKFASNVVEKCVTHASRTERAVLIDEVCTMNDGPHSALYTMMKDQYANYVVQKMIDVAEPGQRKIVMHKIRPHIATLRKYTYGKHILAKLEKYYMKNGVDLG
# [2] = molecular target: T2, PUM1 PUF domain R3-LNG C935L + R936N + Q939G (UniProt Q14671)
# T2 sequence: T1 sequence with A112G
# [3] = molecular target: T3, PUM1 PUF domain R3-LNS C935L + R936N + Q939S (Homo sapiens) (UniProt Q14671)
# T3 sequence: T1 sequence with A112S
# [4] = molecular target: T4, PUM1 PUF domain R3-LRA C935L + Q939A (UniProt Q14671)
# T4 sequence: T1 sequence with N109R
# [5] = molecular target: T5, PUM1 PUF domain R3-LRE C935L + Q939E (UniProt Q14671)
# T5 sequence: T1 sequence with N109R, A112E
# [6] = molecular target: T6, PUM1 PUF domain R3-LRG C935L + Q939G (UniProt Q14671)
# T6 sequence: T1 sequence with N109R, A112G
# [7] = molecular target: T7, PUM1 PUF domain R3-LRL C935L + Q939L (Homo sapiens) (UniProt Q14671)
# T7 sequence: T1 sequence with N109R, A112L
# [8] = molecular target: T8, PUM1 PUF domain R3-LRM C935L + Q939M (UniProt Q14671)
# T8 sequence: T1 sequence with N109R, A112M
# [9] = molecular target: T9, PUM1 PUF domain R3-LRR C935L + Q939R (Homo sapiens) (UniProt Q14671)
# T9 sequence: T1 sequence with N109R, A112R
# [10] = molecular target: T10, PUM1 PUF domain R3-LRS C935L + Q939S (Homo sapiens) (UniProt Q14671)
# T10 sequence: T1 sequence with N109R, A112S
# [11] = molecular target: T11, PUM1 PUF domain R3-LRT C935L + Q939T (Homo sapiens) (UniProt Q14671)
# T11 sequence: T1 sequence with N109R, A112T
# [12] = molecular target: T12, PUM1 PUF domain R3-LRV C935L + Q939V (Homo sapiens) (UniProt Q14671)
# T12 sequence: T1 sequence with N109R, A112V
# [13] = molecular target: T13, PUM1 PUF domain R3-LSA C935L + R936S + Q939A (Homo sapiens) (UniProt Q14671)
# T13 sequence: T1 sequence with N109S
# [14] = molecular target: T14, PUM1 PUF domain R3-LSC C935L + R936S + Q939C (Homo sapiens) (UniProt Q14671)
# T14 sequence: T1 sequence with N109S, A112C
# [15] = molecular target: T15, PUM1 PUF domain R3-LSE C935L + R936S + Q939E (UniProt Q14671)
# T15 sequence: T1 sequence with N109S, A112E
# [16] = molecular target: T16, PUM1 PUF domain R3-LSG C935L + R936S + Q939G (UniProt Q14671)
# T16 sequence: T1 sequence with N109S, A112G
# [17] = molecular target: T17, PUM1 PUF domain R3-LSK C935L + R936S + Q939K (Homo sapiens) (UniProt Q14671)
# T17 sequence: T1 sequence with N109S, A112K
# [18] = molecular target: T18, PUM1 PUF domain R3-LSN C935L + R936S + Q939N (UniProt Q14671)
# T18 sequence: T1 sequence with N109S, A112N
# [19] = molecular target: T19, PUM1 PUF domain R3-LSQ C935L + R936S (UniProt Q14671)
# T19 sequence: T1 sequence with N109S, A112Q
# [20] = molecular target: T20, PUM1 PUF domain R3-LSR C935L + R936S + Q939R (Homo sapiens) (UniProt Q14671)
# T20 sequence: T1 sequence with N109S, A112R
sequence,measurement,setting,value
GGCUAGAACUAGUGGAUCCCCCGGCGCCCGGCGGCUCGAGCCCGGGUAAGUGUAAAUAGUCUGCAUGCCGCCGGGCGCCAUGCCUGCAGGUCGACUCUAGAAAACAUG,binding signal (log2 enrichment (interaction score)),[1],< -7.98
same,binding signal (log2 enrichment (interaction score)),[2],< -8.8
same,binding signal (log2 enrichment (interaction score)),[3],-3.43
same,binding signal (log2 enrichment (interaction score)),[4],-2.86
same,binding signal (log2 enrichment (interaction score)),[5],-6.64
same,binding signal (log2 enrichment (interaction score)),[6],-4.61
same,binding signal (log2 enrichment (interaction score)),[7],-1.33
same,binding signal (log2 enrichment (interaction score)),[8],-5.71
same,binding signal (log2 enrichment (interaction score)),[9],-1.69
same,binding signal (log2 enrichment (interaction score)),[10],-1.11
same,binding signal (log2 enrichment (interaction score)),[11],-1.93
same,binding signal (log2 enrichment (interaction score)),[12],-0.45
same,binding signal (log2 enrichment (interaction score)),[13],-1.4
same,binding signal (log2 enrichment (interaction score)),[14],-2.13
same,binding signal (log2 enrichment (interaction score)),[15],< -10.1
same,binding signal (log2 enrichment (interaction score)),[16],-6.41
same,binding signal (log2 enrichment (interaction score)),[17],-0.34
same,binding signal (log2 enrichment (interaction score)),[18],< -7.38
same,binding signal (log2 enrichment (interaction score)),[19],< -8.48
same,binding signal (log2 enrichment (interaction score)),[20],-1.54
